In PubChem BioAssay (NCATS):
Inconclusive means that the source gave no clear call. Such entries were picked first, then a sample of the others. For some of these results: A potency beside an inconclusive call is a rough fit, not a confirmed value. Active and inactive are the calls of the source. Calls come from the whole dose curve; as a rule, active = well fitted curve in the direction sought with a large enough effect; inconclusive = small, poorly fitted or top-dose-only effect, or another doubt; inactive = no such curve, though single readings can be large; an effect the other way counts as inactive or inconclusive.

Experiments:
[1] = Quantitative High-Throughput drug screen in 47 multiple myeloma cell lines against the NCATS MIPE library collection: Delta47_JCRB cell viability assay (AID 1918925; note: nearly all actives have a fitted effect of over 45% in size); details: Delta47 myeloma viability, CellTiter-Glo ATP, 48 h; viability (% of DMSO): at 45.8 µM (top of the series)
In short: (§1)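 Primary qHTS used for cherry-picking: cells at 500/well, library compounds for 48 h (37C, 5% CO2), luminescent ATP assay.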

[2] = Quantitative High-Throughput drug screen in 47 multiple myeloma cell lines against the NCATS MIPE library collection: EJM_DSMZ cell viability assay (AID 1918926; note: nearly all actives have a fitted effect of over 30% in size)
In short: as §1

[3] = Quantitative High-Throughput drug screen in 47 multiple myeloma cell lines against the NCATS MIPE library collection: AMO1_DSMZ cell viability assay (AID 1918927; note: nearly all actives have a fitted effect of over 30% in size)
In short: as §1

[4] = Quantitative High-Throughput drug screen in 47 multiple myeloma cell lines against the NCATS MIPE library collection: KMM1_JCRB cell viability assay (AID 1918960); details: KMM1 myeloma viability, CellTiter-Glo ATP luminescence, 48 h; viability (% of DMSO): at 45.8 µM (top of the series); note: nearly all actives have a fitted effect of over 30% in size
In short: (§2)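 Each line was plated at 500 cells/well and treated 48 h with library drugs. Viability came from CellTiter-Glo luminescence relative to DMSO and cell-free medium controls.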

[5] = Quantitative High-Throughput drug screen in 47 multiple myeloma cell lines against the NCATS MIPE library collection: KHM11_PLB cell viability assay (AID 1918962); details: KHM11 myeloma cell viability, CellTiter-Glo ATP luminescence, 48 h; series mostly up to 45.8 µM; note: nearly all actives have a fitted effect of over 35% in size
In short: (§3)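 qHTS of the MIPE 4.0 collection: 500 myeloma cells/well, 48 h drug exposure at 37C in 5% CO2, then CellTiter-Glo for 5 min at room temperature before luminescence reading.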

[6] = Quantitative High-Throughput drug screen in 47 multiple myeloma cell lines against the NCATS MIPE library collection: JIM1_ECACC cell viability assay (AID 1918964); details: JIM1 myeloma viability, CellTiter-Glo ATP luminescence, 48 h; viability (% of DMSO): at 45.8 µM (top of the series)
In short: as §1

[7] = Quantitative High-Throughput drug screen in 47 multiple myeloma cell lines against the NCATS MIPE library collection: INA6_PLB cell viability assay (AID 1918965; note: nearly all actives have a fitted effect of over 55% in size); details: INA6 myeloma viability, CellTiter-Glo ATP luminescence, 48 h; viability (% of control): at 45.8 µM (top of the series)
In short: (§4)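 Luminescent ATP measurement with CellTiter-Glo gives viability, scaled between DMSO-only wells (100%) and media-only wells (0%). Cells, 500 per well, faced library compounds for 48 hours at 37C.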

[8] = Quantitative High-Throughput drug screen in 47 multiple myeloma cell lines against the NCATS MIPE library collection: JJN3_DSMZ cell viability assay (AID 1918966; note: nearly all actives have a fitted effect of over 50% in size); details: JJN3 myeloma cells viability, CellTiter-Glo ATP, 48 h; viability, % of DMSO: at 45.8 µM (top of the series)
In short: as §1

[9] = Quantitative High-Throughput drug screen in 47 multiple myeloma cell lines against the NCATS MIPE library collection: H1112_PLB cell viability assay (AID 1918967; note: nearly all actives have a fitted effect of over 30% in size)
In short: as §1

[10] = Quantitative High-Throughput drug screen in 47 multiple myeloma cell lines against the NCATS MIPE library collection: KMS27_JCRB cell viability assay (AID 1918970); details: KMS27 myeloma cells, CellTiter-Glo ATP viability, 48 h; viability (% of DMSO): at 45.8 µM (top of the series); note: nearly all actives have a fitted effect of over 30% in size
In short: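 Each line is seeded at 500 cells per well and treated with library compounds for 48 hours under 37 °C, 5% CO2. CellTiter-Glo is then added for 5 min at room temperature before median relative luminescence is recorded.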

[11] = Quantitative High-Throughput drug screen in 47 multiple myeloma cell lines against the NCATS MIPE library collection: ARD_JJKsccE7 cell viability assay (AID 1918929); details: ARD myeloma cell line viability, CellTiter-Glo, 48 h; viability: at 45.8 µM (top of the series)
In short: as §1

[12] = Quantitative High-Throughput drug screen in 47 multiple myeloma cell lines against the NCATS MIPE library collection: Karpas417_ECACC cell viability assay (AID 1918961); details: Karpas417 myeloma viability, CellTiter-Glo ATP luminescence, 48 h; viability (% of DMSO): at 45.8 µM (top of the series)
In short: as §4

[13] = Quantitative High-Throughput drug screen in 47 multiple myeloma cell lines against the NCATS MIPE library collection: Karpas25_ECACC cell viability assay (AID 1918968; note: nearly all actives have a fitted effect of over 35% in size); details: Karpas25 myeloma viability, CellTiter-Glo ATP, 48 h; viability (% of control): at 45.8 µM (top of the series)
In short: as §1

[14] = Quantitative High-Throughput drug screen in 47 multiple myeloma cell lines against the NCATS MIPE library collection: Karpas620_DSMZ cell viability assay (AID 1918959); details: Karpas620 myeloma viability, CellTiter-Glo ATP luminescence, 48 h; viability (% of DMSO): at 45.8 µM (top of the series); note: nearly all actives have a fitted effect of over 30% in size
In short: as §3

[15] = Quantitative High-Throughput drug screen in 47 multiple myeloma cell lines against the NCATS MIPE library collection: JIM3_ECACC cell viability assay (AID 1918963; note: nearly all actives have a fitted effect of over 35% in size)
In short: as §3

[16] = Quantitative High-Throughput drug screen in 47 multiple myeloma cell lines against the NCATS MIPE library collection: ARP1_JJKsccF8 cell viability assay (AID 1918928; note: nearly all actives have a fitted effect of over 40% in size)
In short: as §2
Potency is the fitted concentration of half-maximal effect.

Row | Structure (SMILES) | Potency [1] | Potency [2] | Potency [3] | Potency [4] | Potency [5] | Potency [6] | Potency [7] | Potency [8] | Potency [9] | Potency [10] | Potency [11] | Potency [12] | Potency [13] | Potency [14] | Potency [15] | Potency [16]
1 | N#Cc1ccc(NC(=O)Nc2ccccc2Br)c2n[nH]nc12 | inconclusive: 20.9 µM [cytotoxic, partial curve] | inconclusive: 33.2 µM [cytotoxic, single point] | active: 14.8 µM | active: 20.9 µM | inconclusive: 37.2 µM [cytotoxic, single point] | active: 8.33 µM | inconclusive: 66.2 µM [cytotoxic, partial curve, poor fit] | inconclusive: 23.5 µM [cytotoxic, partial curve] | inconclusive: 18.7 µM [cytotoxic, partial curve] | active: 13.2 µM | – | – | – | – | – | –
2 | O=C1C[C@@H](c2ccc(O)cc2)Oc2cc(O)cc(O)c21 | inactive | inactive | inconclusive: 0.0059 µM [cytotoxic, full curve, poor fit] | inconclusive: 0.372 µM [cytotoxic, single point] | inactive | inactive | inconclusive: 0.0047 µM [rising, full curve, poor fit] | inconclusive: 37.2 µM [cytotoxic, single point] | – | active: 0.0118 µM | inconclusive: 0.105 µM [cytotoxic, full curve, poor fit] | inconclusive: 0.0118 µM [rising, full curve, poor fit] | inactive | – | – | –
3 | CCCCN(CCCC)CCC(O)c1cc2c(Cl)cc(Cl)cc2c2cc(C(F)(F)F)ccc12 (stereo not given) | inconclusive: 29.6 µM [cytotoxic, single point] | – | inconclusive: 0.001 µM | inconclusive: 0.0526 µM [rising, full curve, poor fit] | inconclusive: 37.2 µM [cytotoxic, single point] | – | – | inconclusive: 37.2 µM [cytotoxic, single point] | inconclusive: 23.5 µM [cytotoxic, partial curve] | inconclusive: 0.0935 µM [rising, full curve, poor fit] | – | inconclusive: 8.33 µM [rising, partial curve, poor fit] | – | inactive | inconclusive: 26.4 µM [cytotoxic, single point] | –
4 | CC(O)=C(C#N)C(=O)Nc1ccc(C(F)(F)F)cc1 | active: 18.7 µM | inconclusive: 18.7 µM [cytotoxic, partial curve] | active: 6.62 µM | – | inconclusive: 0.372 µM [cytotoxic, full curve, poor fit] | inconclusive: 0.372 µM [cytotoxic, full curve, poor fit] | – | inconclusive: 5.9 µM [cytotoxic, partial curve, poor fit] | inconclusive: 33.2 µM [cytotoxic, single point] | inconclusive: 7.43 µM [cytotoxic, partial curve, poor fit] | inconclusive: 5.9 µM [cytotoxic, partial curve, poor fit] | inconclusive: 6.62 µM [cytotoxic, partial curve, poor fit] | active: 26.4 µM | – | active: 23.5 µM | inconclusive: 18.7 µM [cytotoxic, partial curve, poor fit]
5 | O=c1cc(-c2ccc(O)cc2)oc2cc(O)cc(O)c12 | active: 10.5 µM | active: 4.18 µM | inconclusive: 0.935 µM [cytotoxic, partial curve, poor fit] | inconclusive: 0.743 µM [cytotoxic, full curve, poor fit] | inconclusive: 16.6 µM [cytotoxic, partial curve] | inconclusive: 0.166 µM [cytotoxic, full curve, poor fit] | inconclusive: 37.2 µM [cytotoxic, single point] | – | inconclusive: 7.43 µM [cytotoxic, full curve] | inconclusive: 2.35 µM [cytotoxic, partial curve, poor fit] | inconclusive: 1.87 µM [cytotoxic, partial curve, poor fit] | inconclusive: 11.8 µM [cytotoxic, partial curve, poor fit] | – | inconclusive: 0.59 µM [cytotoxic, full curve, poor fit] | inconclusive: 23.5 µM [cytotoxic, partial curve] | –
6 | Cc1ccc(C(=O)Nc2ccc(S(=O)(=O)O)c3cc(S(=O)(=O)O)cc(S(=O)(=O)O)c23)cc1NC(=O)c1cccc(NC(=O)Nc2cccc(C(=O)Nc3cc(C(=O)Nc4ccc(S(=O)(=O)O)c5cc(S(=O)(=O)O)cc(S(=O)(=O)O)c45)ccc3C)c2)c1 | inactive | – | inconclusive: 0.0235 µM [cytotoxic, full curve, poor fit] | inconclusive: 0.0662 µM [cytotoxic, full curve, poor fit] | inactive | inactive | – | inactive | inconclusive: 11.8 µM [cytotoxic, single point] | inactive | inactive | inconclusive: 37.2 µM [rising, partial curve, poor fit] | – | inactive | – | inactive

From entry 1 to 2, copied from above:
Row | Structure (SMILES) | Potency [1] | Potency [2] | Potency [3] | Potency [4] | Potency [5] | Potency [6] | Potency [7] | Potency [8] | Potency [9] | Potency [10] | Potency [11] | Potency [12] | Potency [13] | Potency [14] | Potency [15] | Potency [16]
1 | N#Cc1ccc(NC(=O)Nc2ccccc2Br)c2n[nH]nc12 | inconclusive: 20.9 µM [cytotoxic, partial curve] | inconclusive: 33.2 µM [cytotoxic, single point] | active: 14.8 µM | active: 20.9 µM | inconclusive: 37.2 µM [cytotoxic, single point] | active: 8.33 µM | inconclusive: 66.2 µM [cytotoxic, partial curve, poor fit] | inconclusive: 23.5 µM [cytotoxic, partial curve] | inconclusive: 18.7 µM [cytotoxic, partial curve] | active: 13.2 µM | – | – | – | – | – | –
2 | O=C1C[C@@H](c2ccc(O)cc2)Oc2cc(O)cc(O)c21 | inactive | inactive | inconclusive: 0.0059 µM [cytotoxic, full curve, poor fit] | inconclusive: 0.372 µM [cytotoxic, single point] | inactive | inactive | inconclusive: 0.0047 µM [rising, full curve, poor fit] | inconclusive: 37.2 µM [cytotoxic, single point] | – | active: 0.0118 µM | inconclusive: 0.105 µM [cytotoxic, full curve, poor fit] | inconclusive: 0.0118 µM [rising, full curve, poor fit] | inactive | – | – | –
